Experimental data reported in the supplement of paper PMC10849652.
The list shows a part of the results.

Sequences of proteins named here, by UniProt entry; tags and fusion partners are left off. A change or cut given only in a name is not applied to a line headed by its entry.
UniProt P22033: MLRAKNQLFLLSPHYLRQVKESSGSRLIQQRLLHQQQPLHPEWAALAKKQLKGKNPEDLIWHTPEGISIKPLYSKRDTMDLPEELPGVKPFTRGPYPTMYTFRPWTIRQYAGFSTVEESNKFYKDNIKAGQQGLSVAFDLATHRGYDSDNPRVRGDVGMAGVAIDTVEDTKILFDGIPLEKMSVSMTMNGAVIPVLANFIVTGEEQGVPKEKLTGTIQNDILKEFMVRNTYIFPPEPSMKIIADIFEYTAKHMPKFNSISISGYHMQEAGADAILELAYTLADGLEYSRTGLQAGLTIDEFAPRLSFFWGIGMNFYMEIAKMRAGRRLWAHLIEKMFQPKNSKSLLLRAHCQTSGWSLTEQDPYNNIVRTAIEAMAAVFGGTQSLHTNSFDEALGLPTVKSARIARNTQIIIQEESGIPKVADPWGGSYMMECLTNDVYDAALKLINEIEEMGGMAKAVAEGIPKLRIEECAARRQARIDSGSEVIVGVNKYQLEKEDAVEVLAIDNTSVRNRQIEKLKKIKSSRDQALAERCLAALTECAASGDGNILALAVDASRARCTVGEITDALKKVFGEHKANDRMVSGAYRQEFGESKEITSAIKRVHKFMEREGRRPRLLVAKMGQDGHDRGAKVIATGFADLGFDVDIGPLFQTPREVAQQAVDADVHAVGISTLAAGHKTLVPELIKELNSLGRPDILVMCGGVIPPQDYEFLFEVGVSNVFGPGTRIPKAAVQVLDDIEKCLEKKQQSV
UniProt Q86VX9: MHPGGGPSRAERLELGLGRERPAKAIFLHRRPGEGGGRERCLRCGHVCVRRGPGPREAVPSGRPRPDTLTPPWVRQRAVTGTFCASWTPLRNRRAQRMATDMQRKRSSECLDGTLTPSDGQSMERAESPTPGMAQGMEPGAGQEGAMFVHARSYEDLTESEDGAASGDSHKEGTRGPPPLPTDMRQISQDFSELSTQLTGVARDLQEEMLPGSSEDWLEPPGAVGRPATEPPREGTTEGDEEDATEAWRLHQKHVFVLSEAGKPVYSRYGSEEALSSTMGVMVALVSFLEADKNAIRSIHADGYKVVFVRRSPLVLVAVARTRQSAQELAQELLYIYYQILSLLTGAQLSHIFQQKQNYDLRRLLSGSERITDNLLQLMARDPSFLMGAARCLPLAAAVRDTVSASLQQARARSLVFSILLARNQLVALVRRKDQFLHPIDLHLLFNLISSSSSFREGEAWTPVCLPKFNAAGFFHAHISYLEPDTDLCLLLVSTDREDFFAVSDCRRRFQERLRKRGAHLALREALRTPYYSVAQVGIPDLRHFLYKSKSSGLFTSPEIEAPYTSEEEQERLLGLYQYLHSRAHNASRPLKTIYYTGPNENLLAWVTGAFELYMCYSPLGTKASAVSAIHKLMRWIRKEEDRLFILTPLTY
UniProt Q8N4C8: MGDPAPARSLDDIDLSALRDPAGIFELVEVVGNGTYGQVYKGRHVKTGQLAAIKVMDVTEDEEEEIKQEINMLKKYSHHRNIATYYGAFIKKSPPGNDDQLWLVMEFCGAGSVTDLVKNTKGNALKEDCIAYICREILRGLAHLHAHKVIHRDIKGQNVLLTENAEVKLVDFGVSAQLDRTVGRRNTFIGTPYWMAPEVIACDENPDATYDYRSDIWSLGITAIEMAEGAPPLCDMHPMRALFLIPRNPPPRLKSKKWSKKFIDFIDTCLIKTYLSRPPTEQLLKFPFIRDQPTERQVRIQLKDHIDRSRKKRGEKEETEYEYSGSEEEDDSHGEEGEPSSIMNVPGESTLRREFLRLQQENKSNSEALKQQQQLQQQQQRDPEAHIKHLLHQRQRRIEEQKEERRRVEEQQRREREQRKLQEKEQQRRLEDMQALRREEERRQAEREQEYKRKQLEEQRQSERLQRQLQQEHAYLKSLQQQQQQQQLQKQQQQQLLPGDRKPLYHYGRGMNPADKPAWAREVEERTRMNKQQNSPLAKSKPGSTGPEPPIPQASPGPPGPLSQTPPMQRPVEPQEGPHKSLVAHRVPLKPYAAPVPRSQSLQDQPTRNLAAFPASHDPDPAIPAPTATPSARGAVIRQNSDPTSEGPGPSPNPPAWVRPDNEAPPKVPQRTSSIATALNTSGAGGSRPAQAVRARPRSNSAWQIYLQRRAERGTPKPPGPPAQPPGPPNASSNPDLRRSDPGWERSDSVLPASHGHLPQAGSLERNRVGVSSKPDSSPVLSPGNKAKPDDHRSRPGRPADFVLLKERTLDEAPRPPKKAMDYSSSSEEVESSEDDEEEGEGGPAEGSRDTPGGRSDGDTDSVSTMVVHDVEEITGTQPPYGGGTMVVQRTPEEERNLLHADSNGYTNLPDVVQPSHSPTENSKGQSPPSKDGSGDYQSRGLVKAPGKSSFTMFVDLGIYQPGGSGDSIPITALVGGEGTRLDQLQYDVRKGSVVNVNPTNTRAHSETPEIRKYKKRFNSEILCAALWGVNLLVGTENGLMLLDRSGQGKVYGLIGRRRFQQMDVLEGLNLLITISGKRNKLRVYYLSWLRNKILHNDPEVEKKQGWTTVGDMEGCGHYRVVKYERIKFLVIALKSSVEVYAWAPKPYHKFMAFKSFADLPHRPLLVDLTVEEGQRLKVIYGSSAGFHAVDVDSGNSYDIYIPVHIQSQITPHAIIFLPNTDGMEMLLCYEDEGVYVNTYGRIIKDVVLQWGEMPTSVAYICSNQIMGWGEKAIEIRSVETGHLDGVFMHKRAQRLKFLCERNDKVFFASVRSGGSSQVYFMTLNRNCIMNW
UniProt Q9H3L0: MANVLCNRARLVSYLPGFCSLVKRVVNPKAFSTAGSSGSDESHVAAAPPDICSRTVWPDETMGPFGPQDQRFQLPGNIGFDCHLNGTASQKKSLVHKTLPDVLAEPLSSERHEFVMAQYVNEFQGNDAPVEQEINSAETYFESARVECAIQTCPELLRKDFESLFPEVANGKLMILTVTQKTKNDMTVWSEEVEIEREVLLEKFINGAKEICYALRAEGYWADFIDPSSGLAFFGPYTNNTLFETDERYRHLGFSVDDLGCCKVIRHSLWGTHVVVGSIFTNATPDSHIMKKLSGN
UniProt Q13015: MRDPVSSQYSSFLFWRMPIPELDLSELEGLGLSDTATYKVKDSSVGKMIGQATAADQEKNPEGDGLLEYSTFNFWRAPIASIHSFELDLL
UniProt P46013: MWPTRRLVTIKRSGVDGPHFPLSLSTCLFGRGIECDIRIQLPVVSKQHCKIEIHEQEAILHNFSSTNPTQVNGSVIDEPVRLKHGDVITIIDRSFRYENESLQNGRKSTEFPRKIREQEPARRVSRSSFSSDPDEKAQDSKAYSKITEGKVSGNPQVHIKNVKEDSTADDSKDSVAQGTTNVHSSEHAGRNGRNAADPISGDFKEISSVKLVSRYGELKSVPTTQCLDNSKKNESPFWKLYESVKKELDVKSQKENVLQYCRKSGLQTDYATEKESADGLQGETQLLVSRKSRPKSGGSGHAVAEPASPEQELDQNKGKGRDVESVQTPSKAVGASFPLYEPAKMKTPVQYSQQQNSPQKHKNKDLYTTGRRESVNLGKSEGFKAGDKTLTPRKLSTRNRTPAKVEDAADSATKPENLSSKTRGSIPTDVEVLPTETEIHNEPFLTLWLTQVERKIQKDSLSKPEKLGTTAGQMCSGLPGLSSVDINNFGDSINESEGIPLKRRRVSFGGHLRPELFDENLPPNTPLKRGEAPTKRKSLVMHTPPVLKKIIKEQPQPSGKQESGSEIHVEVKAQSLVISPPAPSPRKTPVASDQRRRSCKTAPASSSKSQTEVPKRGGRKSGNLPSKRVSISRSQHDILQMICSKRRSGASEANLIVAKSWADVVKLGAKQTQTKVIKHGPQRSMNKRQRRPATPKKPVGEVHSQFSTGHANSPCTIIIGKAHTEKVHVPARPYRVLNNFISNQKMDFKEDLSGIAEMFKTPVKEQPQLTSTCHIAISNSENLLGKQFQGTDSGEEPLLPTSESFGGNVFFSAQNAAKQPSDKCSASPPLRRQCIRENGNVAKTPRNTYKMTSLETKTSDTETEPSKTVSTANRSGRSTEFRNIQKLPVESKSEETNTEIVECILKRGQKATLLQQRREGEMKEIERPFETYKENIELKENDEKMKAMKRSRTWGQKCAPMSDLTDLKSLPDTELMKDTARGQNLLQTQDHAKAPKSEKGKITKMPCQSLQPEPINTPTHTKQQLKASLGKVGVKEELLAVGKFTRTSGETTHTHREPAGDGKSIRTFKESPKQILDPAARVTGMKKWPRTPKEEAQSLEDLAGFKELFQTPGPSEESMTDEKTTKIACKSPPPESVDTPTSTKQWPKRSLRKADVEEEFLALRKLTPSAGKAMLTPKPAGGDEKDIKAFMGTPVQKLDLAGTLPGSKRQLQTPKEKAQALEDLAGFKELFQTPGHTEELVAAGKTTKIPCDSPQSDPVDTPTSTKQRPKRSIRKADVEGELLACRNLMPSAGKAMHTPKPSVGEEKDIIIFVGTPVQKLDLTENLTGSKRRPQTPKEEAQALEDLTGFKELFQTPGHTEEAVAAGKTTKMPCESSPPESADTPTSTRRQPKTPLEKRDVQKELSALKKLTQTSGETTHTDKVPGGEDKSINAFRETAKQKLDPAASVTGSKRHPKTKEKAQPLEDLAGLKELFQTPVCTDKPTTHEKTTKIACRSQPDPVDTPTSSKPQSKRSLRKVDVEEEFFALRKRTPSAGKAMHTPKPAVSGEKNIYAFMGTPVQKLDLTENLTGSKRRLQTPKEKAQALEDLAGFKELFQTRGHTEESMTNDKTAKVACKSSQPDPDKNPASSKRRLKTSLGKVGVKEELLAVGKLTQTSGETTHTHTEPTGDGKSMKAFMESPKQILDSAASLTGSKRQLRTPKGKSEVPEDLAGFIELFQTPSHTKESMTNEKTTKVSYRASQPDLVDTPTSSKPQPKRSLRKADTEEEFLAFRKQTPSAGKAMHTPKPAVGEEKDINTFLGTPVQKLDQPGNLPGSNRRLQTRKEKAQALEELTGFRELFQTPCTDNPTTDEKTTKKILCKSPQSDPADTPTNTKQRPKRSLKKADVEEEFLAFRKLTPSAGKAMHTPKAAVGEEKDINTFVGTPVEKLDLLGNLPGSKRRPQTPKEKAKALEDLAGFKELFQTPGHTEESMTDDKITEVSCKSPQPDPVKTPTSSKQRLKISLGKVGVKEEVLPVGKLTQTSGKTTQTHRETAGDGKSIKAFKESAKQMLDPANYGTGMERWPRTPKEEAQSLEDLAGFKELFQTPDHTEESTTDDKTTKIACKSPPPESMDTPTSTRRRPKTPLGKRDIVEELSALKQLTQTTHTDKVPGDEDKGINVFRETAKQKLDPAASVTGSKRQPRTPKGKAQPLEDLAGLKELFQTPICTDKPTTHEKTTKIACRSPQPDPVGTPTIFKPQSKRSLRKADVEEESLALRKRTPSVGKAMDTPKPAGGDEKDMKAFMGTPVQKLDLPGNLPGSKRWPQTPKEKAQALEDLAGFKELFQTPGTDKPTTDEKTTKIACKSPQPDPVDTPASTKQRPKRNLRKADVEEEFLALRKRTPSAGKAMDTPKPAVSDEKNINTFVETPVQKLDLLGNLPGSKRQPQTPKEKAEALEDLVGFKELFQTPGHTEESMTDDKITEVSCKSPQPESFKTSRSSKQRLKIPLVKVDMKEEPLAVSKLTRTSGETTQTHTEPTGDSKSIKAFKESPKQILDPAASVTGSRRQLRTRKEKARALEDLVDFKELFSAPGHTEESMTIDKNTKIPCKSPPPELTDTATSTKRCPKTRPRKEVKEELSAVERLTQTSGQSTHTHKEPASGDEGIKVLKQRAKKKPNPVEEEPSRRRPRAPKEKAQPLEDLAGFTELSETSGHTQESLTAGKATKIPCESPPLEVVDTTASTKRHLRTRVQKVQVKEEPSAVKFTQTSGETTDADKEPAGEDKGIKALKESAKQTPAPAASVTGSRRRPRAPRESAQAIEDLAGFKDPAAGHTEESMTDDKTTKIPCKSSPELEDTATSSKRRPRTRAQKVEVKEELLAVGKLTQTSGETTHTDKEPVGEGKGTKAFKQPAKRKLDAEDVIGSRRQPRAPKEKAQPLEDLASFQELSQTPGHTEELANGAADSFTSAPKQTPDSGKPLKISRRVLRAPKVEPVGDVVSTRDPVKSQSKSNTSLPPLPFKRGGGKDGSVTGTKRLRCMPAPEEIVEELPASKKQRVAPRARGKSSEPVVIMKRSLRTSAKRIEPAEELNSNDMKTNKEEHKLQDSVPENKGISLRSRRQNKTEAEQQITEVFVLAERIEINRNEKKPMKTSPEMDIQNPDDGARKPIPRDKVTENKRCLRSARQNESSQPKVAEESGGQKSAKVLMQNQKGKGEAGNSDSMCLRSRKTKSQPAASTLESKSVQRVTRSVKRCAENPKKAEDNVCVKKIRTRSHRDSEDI
UniProt Q9BRT3: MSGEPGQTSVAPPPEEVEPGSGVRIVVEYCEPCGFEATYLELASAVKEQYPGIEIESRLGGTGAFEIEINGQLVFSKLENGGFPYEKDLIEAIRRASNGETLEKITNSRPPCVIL

Experiments:
Assay in all cases: log2 fold change, soluble protein after heating vs DMSO (PISA); higher = thermal stabilisation; K562 cells, 10 uM, 30 min; active = over 0.2 and 3.5 SD of the protein, either way, in both replicates (recomputed)
bafetinib = compound: Cc1ccc(NC(=O)c2ccc(CN3CC[C@H](N(C)C)C3)c(C(F)(F)F)c2)cc1Nc1nccc(-c2cncnc2)n1 [bafetinib]
How it was run: (§1)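 Aliquots of K562 cells (2×10^6 cells/mL) treated with 10 μM compound for 30 min were heated for 3 min over 48°C-58°C. After pooling and extraction in PBS with 0.5% NP-40 at 4°C, soluble protein from a 21,000xg, 90 min spin was quantified by TMTpro 16plex LC-MS/MS with channel sums equalised. Thermal stability is expressed against control samples, from duplicates, as a log2 fold change.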

[1] = compound: Cc1cccc(CC(=O)N2CCc3c2ccc(-c2cn(C)c4ncnc(N)c24)c3F)n1
How it was run: as §1

nilotinib = compound: Cc1cn(-c2cc(NC(=O)c3ccc(C)c(Nc4nccc(-c5cccnc5)n4)c3)cc(C(F)(F)F)c2)cn1 [nilotinib]
How it was run: as §1

[2] = compound: Cc1nc(Nc2n[nH]c3c2CN(C(=O)N[C@H](CN(C)C)c2ccccc2)C3(C)C)c2sccc2n1
How it was run: as §1

dasatinib = compound: Cc1nc(Nc2ncc(C(=O)Nc3c(C)cccc3Cl)s2)cc(N2CCN(CCO)CC2)n1 [dasatinib]
How it was run: as §1

[3] = compound: Cc1ncc(-c2ccnc(Nc3ccc(S(C)(=O)=O)cc3)n2)n1C(C)C
How it was run: as §1

[4] = compound: Cn1cc(-c2ccc3c(c2)CCN3C(=O)Cc2cccc(C(F)(F)F)c2)c2c(N)ncnc21
How it was run: as §1

[5] = compound: Cn1cc(-c2ccc3nnc(C(F)(F)c4ccc5ncccc5c4)n3n2)cn1
How it was run: as §1

tipifarnib = compound: Cn1cncc1[C@@](N)(c1ccc(Cl)cc1)c1ccc2c(c1)c(-c1cccc(Cl)c1)cc(=O)n2C [tipifarnib]
How it was run: as §1

mubritinib = compound: FC(F)(F)c1ccc(/C=C/c2nc(COc3ccc(CCCCn4ccnn4)cc3)co2)cc1 [mubritinib]
How it was run: as §1

[6] = compound: NC(=O)Nc1cc(-c2cccc(F)c2)sc1C(=O)N[C@H]1CCCNC1
How it was run: as §1

[7] = compound: NC(=O)c1cnc(N[C@@H]2CCCC[C@@H]2N)nc1Nc1cccc(-n2nccn2)c1
How it was run: as §1

[8] = compound: NC1(c2ccc(-c3nc4ccn5c(=O)[nH]nc5c4cc3-c3ccccc3)cc2)CCC1
How it was run: as §1

[9] = compound: NCC(=O)Nc1ccc(-n2nc(C(F)(F)F)cc2-c2ccc3c(ccc4ccccc43)c2)cc1
How it was run: as §1

entinostat = compound: Nc1ccccc1NC(=O)c1ccc(CNC(=O)OCc2cccnc2)cc1 [entinostat]
How it was run: as §1

vorinostat = compound: O=C(CCCCCCC(=O)Nc1ccccc1)NO [vorinostat]
How it was run: as §1

citarinostat = compound: O=C(CCCCCCNC(=O)c1cnc(N(c2ccccc2)c2ccccc2Cl)nc1)NO [citarinostat]
How it was run: as §1

silmitasertib = compound: O=C(O)c1ccc2c(c1)nc(Nc1cccc(Cl)c1)c1ccncc12 [silmitasertib]
How it was run: as §1

[10] = compound: O=C1NC(=O)C(c2cnc3ccccn23)=C1c1cn2c3c(cc(F)cc13)CN(C(=O)N1CCCCC1)CC2
How it was run: as §1

[11] = compound: c1cc(OCCN2CCCCC2)cc(-c2n[nH]c3ccc(-c4nnc[nH]4)cc23)c1
How it was run: as §1

Measured: log2 fold change

MMUT (UniProt P22033)
inactive: bafetinib -0.062 | [1] 0.014 | nilotinib -0.007 | [2] -0.022 | dasatinib -0.056 | [3] -0.027 | [4] 0.024 | [5] -0.003 | tipifarnib -0.003 | mubritinib -0.037 | [6] -0.07 | [7] -0.085 | [8] -0.103 | [9] -0.084 | entinostat 0.019 | vorinostat -0.039 | citarinostat 0.016 | silmitasertib 0.034 | [10] -0.113 | [11] -0.007

MLX (UniProt Q9UH92)
inactive: bafetinib -0.022 | [1] 0.094 | nilotinib -0.11 | [2] -0.01 | dasatinib 0.008 | [3] -0.11 | [4] -0.054 | [5] -0.097 | tipifarnib -0.122 | mubritinib -0.061 | [6] 0.144 | [7] -0.115 | [8] -0.177 | entinostat 0.005 | vorinostat 0.095 | citarinostat 0.139 | silmitasertib -0.091 | [10] -0.086 | [11] -0.175

MRFAP1 (UniProt Q9Y605)
inactive: bafetinib -0.045 | [1] -0.08 | nilotinib -0.174 | [2] -0.064 | dasatinib -0.054 | [3] 0.051 | [4] -0.024 | [5] 0.011 | tipifarnib -0.261 | mubritinib -0.075 | [6] 0.134 | [7] 0.01 | [8] 0.021 | [9] -0.082 | entinostat 0.014 | vorinostat 0.15 | citarinostat 0.133 | silmitasertib -0.019 | [11] -0.028

MON1A (UniProt Q86VX9)
inactive: bafetinib -0.011 | [1] -0.112 | nilotinib -0.163 | [2] -0.056 | dasatinib 0.017 | [3] 0.138 | [5] -0.009 | tipifarnib 0.082 | mubritinib -0.012 | [6] 0.016 | [8] 0.001 | entinostat -0.005 | vorinostat 0.017 | citarinostat 0.161 | silmitasertib -0.157 | [10] -0.013 | [11] -0.275

MRPL12 (UniProt P52815)
inactive: bafetinib -0.018 | [1] -0.001 | nilotinib -0.026 | [2] 0.022 | dasatinib 0.115 | [3] -0.033 | [4] 0.015 | [5] 0.171 | tipifarnib 0.099 | mubritinib -0.036 | [6] -0.05 | [7] 0.038 | [8] 0.008 | [9] -0.015 | entinostat 0.076 | vorinostat -0.044 | citarinostat -0.051 | silmitasertib -0.01 | [10] -0.071 | [11] -0.067

MRPL44 (UniProt Q9H9J2)
inactive: bafetinib 0.185 | [1] 0.064 | nilotinib 0 | [2] 0.201 | dasatinib 0.019 | [3] 0.036 | [4] -0.109 | [5] -0.032 | tipifarnib 0.109 | mubritinib 0.044 | [6] 0.056 | [7] 0.058 | [8] 0.025 | [9] 0.11 | entinostat 0.022 | vorinostat 0 | citarinostat 0.056 | silmitasertib 0.002 | [10] 0.007 | [11] -0.148

MRPL48 (UniProt Q96GC5)
inactive: bafetinib 0.221 | [1] 0.079 | nilotinib -0.22 | [2] 0.2 | dasatinib 0 | [3] 0.118 | [4] -0.068 | [5] -0.066 | tipifarnib -0.002 | mubritinib 0.041 | [6] -0.081 | [7] 0.07 | [8] 0.098 | [9] 0.04 | entinostat 0.012 | vorinostat 0.107 | citarinostat -0.007 | silmitasertib 0.014 | [10] 0.035 | [11] -0.109

MINK1 (UniProt Q8N4C8)
inactive: bafetinib -0.031 | [1] -0.04 | nilotinib -0.025 | [2] -0.062 | [3] -0.09 | [4] 0.02 | [5] -0.042 | tipifarnib 0.018 | mubritinib 0.014 | [6] 0.006 | [7] -0.032 | [8] -0.097 | [9] 0.005 | entinostat 0.045 | vorinostat 0.057 | citarinostat 0.077 | silmitasertib -0.041 | [10] 0.015 | [11] -0.119
active: dasatinib -0.222

MMADHC (UniProt Q9H3L0)
inactive: bafetinib 0.038 | [1] 0.054 | nilotinib -0.068 | [2] -0.173 | dasatinib -0.155 | [3] 0.023 | [4] -0.138 | [5] -0.063 | tipifarnib 0.024 | mubritinib -0.005 | [7] 0.035 | [8] 0.014 | [9] 0.057 | vorinostat 0.157 | citarinostat 0.141 | silmitasertib 0.031 | [11] 0.031

MLLT11 (UniProt Q13015)
inactive: bafetinib -0.01 | [1] -0.113 | nilotinib -0.067 | [2] 0.145 | dasatinib 0.016 | [3] -0.118 | [4] 0.173 | [5] 0.152 | tipifarnib 0.263 | mubritinib -0.089 | [6] 0.192 | [8] -0.075 | [9] 0.21 | entinostat 0.109 | vorinostat 0.05 | citarinostat 0.119 | silmitasertib -0.123 | [10] 0.012 | [11] -0.062

MRPL30 isoform 2 (UniProt Q8TCC3)
inactive: bafetinib 0.231 | [1] 0.143 | nilotinib -0.045 | [2] 0.105 | dasatinib -0.067 | [3] -0.038 | [4] -0.11 | [5] 0.003 | tipifarnib 0.07 | mubritinib 0.047 | [6] 0.043 | [7] 0.034 | [8] 0.061 | [9] 0.077 | entinostat -0.012 | vorinostat 0.021 | citarinostat 0.073 | silmitasertib 0 | [10] 0.022 | [11] -0.068

2 neighbouring records from above:
MRPL12 (UniProt P52815)
inactive: bafetinib -0.018 | [1] -0.001 | nilotinib -0.026 | [2] 0.022 | dasatinib 0.115 | [3] -0.033 | [4] 0.015 | [5] 0.171 | tipifarnib 0.099 | mubritinib -0.036 | [6] -0.05 | [7] 0.038 | [8] 0.008 | [9] -0.015 | entinostat 0.076 | vorinostat -0.044 | citarinostat -0.051 | silmitasertib -0.01 | [10] -0.071 | [11] -0.067

MRPL44 (UniProt Q9H9J2)
inactive: bafetinib 0.185 | [1] 0.064 | nilotinib 0 | [2] 0.201 | dasatinib 0.019 | [3] 0.036 | [4] -0.109 | [5] -0.032 | tipifarnib 0.109 | mubritinib 0.044 | [6] 0.056 | [7] 0.058 | [8] 0.025 | [9] 0.11 | entinostat 0.022 | vorinostat 0 | citarinostat 0.056 | silmitasertib 0.002 | [10] 0.007 | [11] -0.148

The list goes on.

MKLN1 (UniProt Q9UL63)
inactive: bafetinib 0.029 | [1] 0.009 | nilotinib 0.007 | [2] 0.002 | dasatinib 0.001 | [3] -0.046 | [4] -0.066 | [5] -0.077 | tipifarnib 0.058 | mubritinib 0.021 | [6] -0.042 | [7] -0.008 | [8] -0.058 | [9] -0.025 | entinostat 0.004 | vorinostat 0.023 | citarinostat 0.05 | silmitasertib 0.011 | [10] -0.02 | [11] -0.046

MMTAG2 (UniProt Q9BU76)
inactive: bafetinib 0.168 | [1] -0.053 | nilotinib 0.023 | [2] 0.088 | dasatinib 0.122 | [3] -0.036 | [4] -0.173 | [5] -0.155 | tipifarnib 0.078 | mubritinib -0.068 | [6] 0.088 | [7] 0.087 | [8] 0.154 | [9] 0.299 | entinostat -0.059 | vorinostat 0.116 | citarinostat 0.003 | silmitasertib 0.041 | [11] -0.276

MRPL45 (UniProt Q9BRJ2)
inactive: bafetinib 0.218 | [1] 0.117 | nilotinib -0.213 | [2] 0.146 | dasatinib -0.05 | [3] 0.004 | [4] -0.021 | [5] 0.006 | tipifarnib 0.091 | mubritinib -0.013 | [6] 0.024 | [7] 0.037 | [8] -0.074 | [9] 0.147 | entinostat -0.03 | vorinostat 0.1 | citarinostat 0.025 | silmitasertib -0.043 | [10] -0.013 | [11] -0.058

MKI67 (UniProt P46013)
inactive: bafetinib -0.09 | [1] -0.125 | nilotinib -0.141 | [2] 0.023 | dasatinib 0.035 | [3] -0.016 | [4] -0.008 | [5] 0.094 | tipifarnib 0.2 | mubritinib 0.051 | [6] 0.085 | [7] -0.011 | [8] 0.005 | [9] 0.072 | entinostat -0.043 | vorinostat 0.038 | citarinostat 0.002 | silmitasertib -0.002 | [10] 0.063 | [11] -0.031

MIEN1 (UniProt Q9BRT3)
inactive: bafetinib 0.023 | [1] -0.013 | nilotinib -0.029 | [2] -0.037 | dasatinib -0.041 | [3] -0.08 | [4] 0.08 | [5] 0.139 | tipifarnib 0.083 | mubritinib 0.018 | [6] 0.045 | [7] 0.003 | [8] -0.013 | [9] 0.001 | entinostat 0.016 | vorinostat -0.042 | citarinostat -0.007 | silmitasertib 0.004 | [10] -0.131 | [11] 0.057
